# Percent effect of library compounds

By UniProt entry, the sequences of proteins in these tests, tags left out.
UniProt P9WFT3, whole entry: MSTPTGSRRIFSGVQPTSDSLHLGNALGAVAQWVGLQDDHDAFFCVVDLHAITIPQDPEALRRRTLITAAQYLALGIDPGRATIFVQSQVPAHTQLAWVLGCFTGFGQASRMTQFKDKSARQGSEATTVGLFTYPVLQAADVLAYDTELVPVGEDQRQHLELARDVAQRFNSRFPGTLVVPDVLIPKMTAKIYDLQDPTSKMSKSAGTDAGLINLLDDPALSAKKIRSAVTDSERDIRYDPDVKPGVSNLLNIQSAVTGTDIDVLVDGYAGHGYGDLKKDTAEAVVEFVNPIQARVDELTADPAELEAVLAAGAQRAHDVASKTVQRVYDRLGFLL
UniProt I6X8D2, whole entry: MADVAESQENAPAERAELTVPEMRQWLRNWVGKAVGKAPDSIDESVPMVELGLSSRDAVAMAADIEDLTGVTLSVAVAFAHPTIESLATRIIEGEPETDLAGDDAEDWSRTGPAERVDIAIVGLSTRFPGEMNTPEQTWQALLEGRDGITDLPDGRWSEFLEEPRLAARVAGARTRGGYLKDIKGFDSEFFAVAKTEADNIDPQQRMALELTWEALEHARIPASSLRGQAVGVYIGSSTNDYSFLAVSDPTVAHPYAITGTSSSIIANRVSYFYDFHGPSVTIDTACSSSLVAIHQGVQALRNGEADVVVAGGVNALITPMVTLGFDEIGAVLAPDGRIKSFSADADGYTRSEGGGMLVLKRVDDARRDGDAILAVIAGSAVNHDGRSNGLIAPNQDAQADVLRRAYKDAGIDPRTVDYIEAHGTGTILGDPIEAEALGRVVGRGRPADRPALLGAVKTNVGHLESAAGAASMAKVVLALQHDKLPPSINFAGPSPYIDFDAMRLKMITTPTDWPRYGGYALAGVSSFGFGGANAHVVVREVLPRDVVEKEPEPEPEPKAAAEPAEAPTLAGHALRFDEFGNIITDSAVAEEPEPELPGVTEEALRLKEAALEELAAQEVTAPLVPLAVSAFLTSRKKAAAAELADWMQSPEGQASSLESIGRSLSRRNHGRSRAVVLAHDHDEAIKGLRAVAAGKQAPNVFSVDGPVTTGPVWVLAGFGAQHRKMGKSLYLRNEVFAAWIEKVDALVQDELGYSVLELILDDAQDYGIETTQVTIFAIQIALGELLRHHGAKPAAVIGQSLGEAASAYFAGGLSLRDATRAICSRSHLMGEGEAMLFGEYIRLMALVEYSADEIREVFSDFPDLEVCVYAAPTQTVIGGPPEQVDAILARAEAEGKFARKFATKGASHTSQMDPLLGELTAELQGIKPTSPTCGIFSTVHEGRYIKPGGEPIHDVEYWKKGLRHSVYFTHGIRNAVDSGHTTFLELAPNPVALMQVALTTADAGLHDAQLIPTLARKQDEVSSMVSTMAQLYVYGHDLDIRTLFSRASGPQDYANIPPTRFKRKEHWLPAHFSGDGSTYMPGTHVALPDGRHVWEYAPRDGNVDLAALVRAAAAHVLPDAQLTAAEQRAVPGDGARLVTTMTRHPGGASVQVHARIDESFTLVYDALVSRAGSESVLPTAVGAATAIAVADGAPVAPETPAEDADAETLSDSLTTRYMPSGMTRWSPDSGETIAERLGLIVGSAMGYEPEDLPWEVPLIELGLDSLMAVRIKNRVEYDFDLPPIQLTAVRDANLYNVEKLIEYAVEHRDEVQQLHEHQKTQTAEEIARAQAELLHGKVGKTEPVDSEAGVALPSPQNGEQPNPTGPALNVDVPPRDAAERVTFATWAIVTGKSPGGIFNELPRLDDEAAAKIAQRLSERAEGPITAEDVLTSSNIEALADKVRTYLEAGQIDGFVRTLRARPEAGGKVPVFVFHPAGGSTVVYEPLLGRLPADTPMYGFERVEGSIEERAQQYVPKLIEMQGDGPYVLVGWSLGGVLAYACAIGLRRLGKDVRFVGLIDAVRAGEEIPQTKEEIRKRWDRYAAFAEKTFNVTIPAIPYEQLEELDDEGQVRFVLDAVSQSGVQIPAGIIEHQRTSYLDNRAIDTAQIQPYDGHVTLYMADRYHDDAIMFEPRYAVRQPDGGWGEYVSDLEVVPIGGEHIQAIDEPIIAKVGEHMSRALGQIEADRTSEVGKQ
UniProt P9WNZ1, whole entry: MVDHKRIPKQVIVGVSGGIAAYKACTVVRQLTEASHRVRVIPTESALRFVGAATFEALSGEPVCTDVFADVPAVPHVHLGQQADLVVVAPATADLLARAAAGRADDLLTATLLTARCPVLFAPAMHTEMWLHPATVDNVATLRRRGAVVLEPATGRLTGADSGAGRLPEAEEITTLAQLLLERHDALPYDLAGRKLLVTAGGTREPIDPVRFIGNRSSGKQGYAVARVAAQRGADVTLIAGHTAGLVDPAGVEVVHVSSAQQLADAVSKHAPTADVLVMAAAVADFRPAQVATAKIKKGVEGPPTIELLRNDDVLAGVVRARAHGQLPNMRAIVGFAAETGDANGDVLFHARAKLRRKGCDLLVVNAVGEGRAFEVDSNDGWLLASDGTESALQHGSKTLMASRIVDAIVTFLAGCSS

Data taken from ChEMBL document CHEMBL3988442, “University of Dundee, Small-Polar-MMV Screening Library” (2021).

MtTrpRS: 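Tryptophan-tRNA ligase, Mycobacterium tuberculosis (UniProt P9WFT3). Enzyme assay of tryptophanyl-tRNA synthetase; the read-out is not stated. Tested at 10 µM. Higher most likely means stronger inhibition; the record gives no direction and few retests gave an IC50. Size under these conditions: about 65,000 compounds, about 64 of them at 50% or above in at least one test.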
Pks13 thioesterase: 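Enzyme assay of the thioesterase domain of polyketide synthase 13; the read-out is not stated. Target: Polyketide synthase Pks13, Mycobacterium tuberculosis (UniProt I6X8D2). Concentration: 30 µM. The record gives no direction; the compounds picked for IC50 retests had high values, so higher reads as stronger inhibition. Size under these conditions: about 67,000 compounds, about 300 of them at 50% or above in at least one test.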
CoaBC: 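Coenzyme A biosynthesis protein CoaBC, Mycobacterium tuberculosis (UniProt P9WNZ1). Enzyme assay of CoaBC with a phosphate dye (Biomol Green) read at 650 nm. Concentration: 30 µM. Direction is inferred from only a few compounds that gave an IC50; most scored high, so higher reads as stronger inhibition. Most strong results did not repeat in a second test. Of about 67,000 compounds tested this way, about 40 (0.06%) reached 50% or more in at least one test.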

Results are given as percent effect. The record does not define 0% and 100%; most values in the screen are far below 50% and negative numbers occur (in some assays of this library far below -100). Compounds were drawn at random from those tested, without regard to their results. Two or more numbers in one place are separate tests of the same structure; such repeats can differ widely. A dash means the value is not listed here; it may have been measured.

| # | compound | MtTrpRS | Pks13 thioesterase | CoaBC |
|---|---|---|---|---|
| 1 | `CN(Cc1cnn(-c2ccccc2)n1)CC1CCCN1c1cccnn1` (stereo not given) | -2.242% | 44.21% | 3.84% |
| 2 | `O=C(O)CCC(=O)N1CCN(CC2CC2)c2ncccc2C1` | 10.08% | -35.61% | -3.09% |
| 3 | `CCOc1ccc2nc(CN3CCC(CN)C3)ccc2c1` (stereo not given) | -1.183% | -11.41% | 6.827% |
| 4 | `NC(=O)C1CCN(C(=O)CCn2ccc3ccc(Br)cc32)CC1` | -0.7703% | -36.4% | 0.5051% |
| 5 | `CCn1c(C)nnc1SCCNc1cc(COC)ncn1` | 6.144% | -0.6135% | -2.526% |
| 6 | `CCOc1cccc2c1OCC(=O)N(c1ccc3c(c1)OCO3)C2` | -6.768% | 1.248% | -5.811% |
| 7 | `Cc1ncc(CN(C)C(=O)Nc2cccc(N3CCOC3=O)c2)s1` | 7.74% | 13.52% | - |
| 8 | `COc1ccccc1C1CNC(=O)c2nc(-c3nccn3C)[nH]c2C1` (stereo not given) | 8.992% | 9.177% | 3.968% |
| 9 | `Cn1cc(CN2CC[C@H](O)[C@@H]2Cc2ccccc2)cn1` | -3.909% | 3.103% | 1.25% |
| 10 | `O=C1CC(c2ccsc2)c2sc(C(=O)O)c(-c3ccc(F)cc3)c2N1` (stereo not given) | -3.214% | -6.643% | 1.788% |
| 11 | `Cn1ncc2c1C(COCC1CC1)N(C(=O)c1ccncn1)CC2` (stereo not given) | 12.5% | 3.774% | - |
| 12 | `CCN(Cc1ccc2cccc(O)c2n1)CC1CCCO1` (stereo not given) | -0.4461% | 9.242% | 33.18% & 20.11% |
| 13 | `CC(NC(=O)CCCn1cnc2ccccc2c1=O)c1ncn[nH]1` (stereo not given) | 4.466% | -5.599% | 0% |
| 14 | `CCS(=O)(=O)c1ccc2oc([C@H]3CCN(Cc4cccnc4)C3)nc2c1` | 3.738% | -13.46% | 0.5894% |
| 15 | `O=C(c1ccc2[nH]cnc2c1)N1CCC(Oc2cccnc2)CC1` | -4.974% | -29.87% | -19.75% |
| 16 | `Fc1cnc(N2CCO[C@H]3CN(CC4CCCCC4)C[C@H]32)nc1` | 5.172% | -51% | -4.938% |
| 17 | `COCCN1C[C@@H]2CN(Cc3ccc(F)cc3)C[C@@H]2C1=O` | -0.2907% | -21.81% | 3.732% |
| 18 | `O=C(NCc1ccccn1)[C@@H]1CCO[C@@H]2CCN(Cc3ccoc3)C[C@H]21` | 0.7846% | -11.67% | 4.37% |
| 19 | `Cc1nc(C(=O)N2CCCN(Cc3cnn(C)c3)CC2)ccc1C#N` | -9.759% | -13.82% | 0.7895% |
| 20 | `Cc1cnn(CCNCc2nccn2CC(F)(F)F)c1` | -0.2601% | -19.85% | 5.579% |
| 21 | `CCCOCCNc1nc2c(s1)c(C)nn2C` | -0.5727% | 0.1809% | 1.583% |
| 22 | `Cc1ccn(CCC(=O)NCc2ccco2)n1` | 6.446% | -9.382% | 1.186% |
| 23 | `Cc1nn(C)c2nc(N3CCC(C(O)Cc4ccccc4)CC3)sc12` (stereo not given) | 3.314% | -8.528% | 0.2571% |
| 24 | `O=C(NCc1ccc(F)cc1)NCC(O)(c1cccs1)C1CC1` (stereo not given) | 0.9878% | -33.5% | -1.48% |
| 25 | `COc1cc(OC)nc(N2CCC3(CC2)OCCCC3O)n1` (stereo not given) | 0.895% | -16.86% | -0.216% |
| 26 | `CN(CC(=O)NCc1cc2ccccc2o1)S(C)(=O)=O` | -1.445% | -24% | 4.783% |
| 27 | `CCC(O)CN1CCN(C(=O)CN(C)c2ccc(Cl)cn2)CC1` (stereo not given) | 4.608% | -19.86% | -2.526% |
| 28 | `O=C(c1cnccn1)N1C[C@@H]2CN(Cc3cccnc3)CCO[C@@H]2C1` | 4.185% | -14.72% | -2.521% |
| 29 | `Cc1nn(C)c(Cl)c1C1CCCN1C(=O)c1cnc[nH]1` (stereo not given) | -0.2366% | -14.89% | -1.863% |
| 30 | `Cc1ccc([C@H]2CN(CCO)C[C@@H]2NC(=O)CN2CCCCC2=O)o1` | 4.502% | 7.39% | -1.58% |
| 31 | `Cc1ccc(S(=O)(=O)N2C[C@H]3C[C@H](NC(=O)c4ccnn4C)[C@H]3C2)cc1` | -2.425% | -36.96% | 1.111% |
| 32 | `Cc1nc(NCc2ccccc2)cc(C(C)Cn2nc(C)c(C)c2C)n1` (stereo not given) | -6.496% | 1.688% | 0.2628% |
| 33 | `CCCc1noc(C[S+]([O-])CC(=O)NCc2ccccc2)n1` (stereo not given) | 9.305% | 6.858% | -1.911% |
| 34 | `O=C1C[C@H]2[C@@H](CCN2C(=O)Cc2ccccc2)N1Cc1cccnc1` | -4.797% | -35.98% | 6.821% |
| 35 | `c1ccc(-n2cc(CNCC3CCCN3c3cccnn3)nn2)cc1` (stereo not given) | -3.123% | -7.583% | 1.695% |
| 36 | `Cn1cc(Cl)cc1C(=O)N1CCC2(CCCN(CC3CC3)C2=O)C1` (stereo not given) | -0.9428% | -12.54% | 0.3636% |
| 37 | `COc1cc2cc(C(=O)NCCC(=O)O)n(C)c2c(OC)c1OC` | -0.9067% | - | -3.002% |
| 38 | `Cc1occc1C(=O)N1C[C@@H]2OCCN(C(C)C)[C@@H]2C1` | 1.451% | -11.37% | -0.2028% |
| 39 | `Cc1n[nH]c(C)c1CNC(=O)N(Cc1ccccc1)CC(C)(C)O` | -0.3894% | -36.62% | 0.6329% |
| 40 | `CCC(CO)N(Cc1cccs1)C(=O)CSC` (stereo not given) | 3.974% | -11.87% | -0.4914% |
| 41 | `CCc1nc(C2CCCN(C(=O)c3cccnc3O)C2)no1` (stereo not given) | -6.316% | -22.65% | -1.276% |
| 42 | `O=C(CCC(F)(F)F)N1CCCC2(CCC(=O)N(CC3CC3)C2)C1` (stereo not given) | 10.42% | -2.593% | 2.067% |
| 43 | `Cn1cc(CNC(=O)Nc2ccc(S(=O)(=O)C(F)F)cc2)cn1` | 1.715% | -1.606% | - |
| 44 | `Cc1[nH]ccc1C(=O)N[C@H]1CN(S(C)(=O)=O)C[C@@H]1C1CC1` | 1.92% | -16.77% | 2.258% |
| 45 | `COc1cccc(CN(C)Cc2nc(C(C)C)no2)c1` | 2.171% | -10.03% | 1.515% |
| 46 | `Oc1nc(-c2cnccn2)nc2c1CCN(Cc1ccccn1)C2` | - | 19.43% | 5.392% |
| 47 | `O=C(NCC(O)c1ccc(F)cc1F)c1ccccc1` (stereo not given) | -1.701% | -8.556% | 0.7937% |
| 48 | `Cc1noc2ncc(S(=O)(=O)N3CCCC(C)(C)CC3)cc12` | 2.617% | -2.247% | 6.132% |
| 49 | `COC(=O)c1ccc(-c2ccc(/C=C3\C(=O)NC(=N)N3C)o2)cc1` | -3.885% | 15.06% | -2.025% |
| 50 | `O=C(N1CCCC1)C1(Cc2ccc(-c3cccs3)cc2)CCNC1` (stereo not given) | -9.952% | 0.6801% | -3.154% |
| 51 | `Cc1cc(C(F)(F)F)cc(N2C[C@@H](CN(C)CCO)[C@@H](CO)C2)n1` | 2.311% | 12.1% | 0.6329% |
| 52 | `COc1ccccc1OCC(=O)NS(=O)(=O)c1ccc(Cl)cc1F` | -0.6173% | -21.41% | 0.9615% |

6 of the entries, repeated:

| compound | MtTrpRS | Pks13 thioesterase | CoaBC |
|---|---|---|---|
| `Cn1cc(CN2CC[C@H](O)[C@@H]2Cc2ccccc2)cn1` | -3.909% | 3.103% | 1.25% |
| `COC(=O)c1ccc(-c2ccc(/C=C3\C(=O)NC(=N)N3C)o2)cc1` | -3.885% | 15.06% | -2.025% |
| `Cn1ncc2c1C(COCC1CC1)N(C(=O)c1ccncn1)CC2` (stereo not given) | 12.5% | 3.774% | - |
| `CCc1nc(C2CCCN(C(=O)c3cccnc3O)C2)no1` (stereo not given) | -6.316% | -22.65% | -1.276% |
| `Fc1cnc(N2CCO[C@H]3CN(CC4CCCCC4)C[C@H]32)nc1` | 5.172% | -51% | -4.938% |
| `Cc1ccc(S(=O)(=O)N2C[C@H]3C[C@H](NC(=O)c4ccnn4C)[C@H]3C2)cc1` | -2.425% | -36.96% | 1.111% |